No constants are given. Whether binding was seen depends on the method and setting. Binding seen in cells or lysates may run through a third protein. Some results given as binding are weak or reduced against the parent protein; the word gives no strength. For some assays here: Where a sequence is shown, tags or fusion partners need not be part of it.
How the values were obtained:
[1] = molecular target: T1, biotin-tagged DnaA (bio-DnaA) (Escherichia coli, UniProt P03004 1-467, biotin (biotin-tagged)); assay: pull-down; bio-DnaA or its truncated forms (10 pmol) with soluble extract of MG1655 carrying pQRST in buffer C (20 uL; 50 mM Hepes-KOH pH 7.6, 100 mM KCl, 10 mM magnesium acetate, 10 uM ATP), 5 min on ice, then 1 h at 4°C with streptavidin magnetic beads; SDS-13% PAGE, silver staining; only the target …
T1 construct: DnaA, chromosomal replication initiator of Escherichia coli; also called bio-DnaA (Full); source: purified, as reported (Ishida et al., 2004)
T1 sequence (looked up): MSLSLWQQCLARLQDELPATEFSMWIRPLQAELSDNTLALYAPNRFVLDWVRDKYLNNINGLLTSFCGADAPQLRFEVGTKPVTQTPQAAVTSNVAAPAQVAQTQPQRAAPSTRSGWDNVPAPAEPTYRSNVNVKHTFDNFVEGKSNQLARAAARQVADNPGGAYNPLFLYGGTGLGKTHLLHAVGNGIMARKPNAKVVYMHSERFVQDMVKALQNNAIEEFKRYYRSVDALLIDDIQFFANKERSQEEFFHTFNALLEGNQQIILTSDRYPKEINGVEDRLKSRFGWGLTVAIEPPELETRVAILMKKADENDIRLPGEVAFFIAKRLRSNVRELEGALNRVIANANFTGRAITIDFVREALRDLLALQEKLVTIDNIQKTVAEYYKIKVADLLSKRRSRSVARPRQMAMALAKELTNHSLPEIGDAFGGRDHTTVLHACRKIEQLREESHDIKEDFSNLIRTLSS

DnaA (native, wild-type) = molecular target: T2, DnaA (native, wild-type) (Escherichia coli, UniProt P03004 1-467); assay: pull-down; DnaA (7.5 pmol) with biotin-tagged oriC fragment (100 fmol), then protein extracts of cells carrying pQRST or pBAD18, on ice; streptavidin beads; SDS-12% PAGE, silver staining; only the target purified
T2 construct: DnaA, chromosomal replication initiator of Escherichia coli; called native, intact, wild-type DnaA; Untagged; In the bio-oriC pull-downs it stood as DnaA complexes (multimers) formed on a biotin-tagged oriC DNA fragment; also called native DnaA; wild-type DnaA (WT); source: purified
T2 sequence (looked up): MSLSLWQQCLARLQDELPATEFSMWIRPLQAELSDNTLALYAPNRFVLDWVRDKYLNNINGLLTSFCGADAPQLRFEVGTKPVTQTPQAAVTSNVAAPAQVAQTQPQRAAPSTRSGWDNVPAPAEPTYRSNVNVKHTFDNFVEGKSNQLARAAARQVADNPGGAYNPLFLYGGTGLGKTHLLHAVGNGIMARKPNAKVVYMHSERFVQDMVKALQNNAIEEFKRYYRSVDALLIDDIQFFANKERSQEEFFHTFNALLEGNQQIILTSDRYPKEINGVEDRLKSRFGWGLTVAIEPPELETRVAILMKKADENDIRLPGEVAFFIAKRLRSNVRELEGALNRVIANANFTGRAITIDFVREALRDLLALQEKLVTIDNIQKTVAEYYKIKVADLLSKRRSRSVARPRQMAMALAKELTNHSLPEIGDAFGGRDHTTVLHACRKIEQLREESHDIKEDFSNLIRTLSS

Binder | binding [1] | binding (DnaA (native, wild-type))
YfdQ (protein, UniProt P76513 1-274) MSQNLDATAINQIHALISAQGVNEIISKIGADAVALPENFRIHDLEKFNLNRFRFRGALSTASIDDFTRYSKDLADEGTRCFIDADNMRAVSVLNLGTIDEPGHADNTATLKLKKTAPFSALLSVNGERNSQKSLAEWIEDWADYLVGFDANGDAIQATKAAAAIRKITIEANQTADFEDNDFSGKRSLMESVEAKTKDIMPVAFEFKCVPFEGLKERPFKLRLSIITGDRPVLVLRIIQLEAVQEDMANEFRDLLVEKFKDSKVETFIGTFTA | no binding | –
YfdS (protein, UniProt P76515 1-120) MRMNVFEMEGFLRGKCVPRDLKVNETNAEYLVRKFDALEAKCAALENKIIPVSAELPPANESVLLFDANGEGWLIGWRSLWYTWGQKETGEWQWTFQVGDLENVNITHWAVMPKAPEAGA | no binding | –
YfdT (protein, UniProt P76516 1-101) MTTFTNKELIKEIKERISSLEVRDDIERRAYEIALVSLEVEPDEREAYELFMEKRFGDLVDRRRAKNGDNEYMAWDMTLGWIIWQQRAGIHFSTMSQQEVK | no binding | –
His-tagged YfdR (His-YfdR) (natural protein, Escherichia coli, UniProt P76514 1-178, looked up, YfdR of the cryptic prophage CPS-53 of Escherichia coli; amplified from pSSP with a forward primer that begins at the ATG of yfdR (nogu10) and nogu11, cloned NheI-EcoRI into pBAD/HisB; also called purified YfdR; source: E. coli MC1061 carrying pYfdR (pBAD/HisB), arabinose-induced, purified (Ni-NTA agarose)) MSFIKTFSGKHFYYDKINKDDIVINDIAVSLSNICRFAGHLSHFYSVAQHAVLCSQLVPQEFAFEALMHDATEAYCQDIPAPLKRLLPDYKRMEEKIDAVIREKYGLPPVMSTPVKYADLIMLATERRDLGLDDGSFWPVLEGIPATEMFNVIPLAPGHAYGMFMERFNDLSELRKCA | binds | binds
